Hit rate of the full screen: of about 330,000 compounds, about 7,700 (2.3%) were called active. Inconclusive results, whose numbers are uncertain, are shown with a selection of clear calls. Calls come from the whole dose curve; as a rule, active = well fitted inhibition curve with a large enough effect; inconclusive = small, poorly fitted or top-dose-only effect, or effect the other way; inactive = flat fitted curve, though single readings scatter. A potency beside an inconclusive call is a rough fit, not a confirmed value.
Experiment: qHTS screen for small molecules that inhibit ELG1-dependent DNA repair in human embryonic kidney (HEK293T) cells expressing luciferase-tagged ELG1; note: nearly all actives have a fitted effect of over 55% in size
Conditions: HEK293T ELG1-luciferase reporter, luminescence, 16 h, DNA damage induced by 5-fluorouridine; series mostly up to 46.1 µM
Outline: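 Quantitative HTS, concentration-response format. 2,000 cells/well co-treated with 5-fluorouridine and compound, 16 hr in 5% CO2 at 37 °C; ONE-Glo luminescence read after 30 min.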
For `Cc1ccccc1C(=O)Nc1nncs1`, the Potency was inconclusive: 16.4 µM [activator, single point]. In the case of `CCC(C)C(NC(=O)c1ccccc1NC(=O)c1ccco1)C(=O)NC1CCCCC1` (stereo unspecified), the Potency was inconclusive: 5.8 µM [inhibitor, partial curve, poor fit]. In the case of `c1ccc(-c2nc(N3CCOCC3)c3ccccc3n2)nc1`, the Potency was active: 16.4 µM. For `CN(C)c1ccnc(SCc2ccccc2Cl)c1C#N`, the Potency was inconclusive: 18.4 µM [activator, single point]. In the case of `FC(F)(F)c1nc(-c2cccs2)ncc1-c1nnnn1-c1ccc(Cl)cc1`, the Potency was active: 20.6 µM. With `O=C(CN1CCOCC1)Nc1ccc(S(=O)(=O)N2CCCCCC2)cc1` the Potency was “inactive”. With `O=c1oc2ccccc2cc1-c1ccccc1` the Potency was inconclusive: 20.6 µM [activator, partial curve]. In the case of `CC(C)CN1C(=O)c2ccc(NC(=O)Cc3ccccc3)cc2C1=O`, the Potency was inconclusive: 5.17 µM [inhibitor, single point]. In the case of `CN(C)CC(=O)Nc1ccc(S(N)(=O)=O)cc1`, the Potency was “inactive”. For `N#C/C(=C/c1ccc(C(=O)O)cc1)C(=O)Nc1ccccc1`, the Potency was “inactive”. For `CC(=O)c1cccc(NC(=O)CSC(=O)c2ccccc2)c1`, the Potency was “inactive”. In the case of `CC(=O)c1cccc(S(=O)(=O)N2CCN(c3ccccc3F)CC2)c1`, the Potency was inconclusive: 29.1 µM [inhibitor, single point]. For `CN(C)CCCNC(NC(=O)c1cccs1)C(Cl)(Cl)Cl` (stereo unspecified), the Potency was “inactive”. For `CCc1ccc2c(c1)C(=O)C(=O)N2CCS(=O)(=O)c1ccccc1`, the Potency was “inactive”. For `COc1ccc(/C=C2\CCc3c2nc2ccccc2c3C(=O)O)cc1OC`, the Potency was inconclusive: 2.91 µM [activator, full curve]. In the case of `O=C(CCN1CCOCC1)Nc1ccc2c(c1)CCC2`, the Potency was inconclusive: 14.6 µM [activator, partial curve, poor fit]. In the case of `O=C(Nc1ccccc1N1CCCCC1)c1cc(S(=O)(=O)N2CCOCC2)ccc1Cl`, the Potency was inconclusive: 25.9 µM [inhibitor, single point]. With `CC(=O)Nc1ccc(NC(=O)CSc2ncc(C(=O)Nc3ccccc3)c(=O)n2C)cc1` the Potency was inconclusive: 14.6 µM [activator, partial curve]. With `CCSC(=S)c1c(C)[nH]n(-c2ccccc2)c1=O` the Potency was inconclusive: 25.9 µM [inhibitor, partial curve, poor fit]. For `COc1ccccc1NC(=O)CSCC(=O)N1c2ccccc2CCc2ccccc21`, the Potency was inconclusive: 18.4 µM [inhibitor, single point]. In the case of `C=CCN1C(c2ccc(Br)cc2)=CS/C1=C(/C#N)c1nnc(N2CCOCC2)n1-c1ccccc1`, the Potency was inconclusive: 23.1 µM [inhibitor, partial curve]. With `N#CCC(=N)N1CCN(c2ccccc2)CC1` the Potency was inconclusive: 7.31 µM [activator, partial curve]. For `Cn1c(=O)[nH]c(=O)c2c1nc(Br)n2CCSc1nc2ccccc2o1`, the Potency was inconclusive: 29.1 µM [inhibitor, single point]. For `COc1ccc(C(=O)N2CCN(C3CCC(c4ccccc4)CC3)CC2)cc1OC` (stereo unspecified), the Potency was inconclusive: 13 µM [inhibitor, partial curve, poor fit]. For `NNc1nc2ccc(F)cc2s1`, the Potency was inconclusive: 11.6 µM [activator, partial curve]. For `CC(=O)Nc1cccc(OCC(=O)Nc2sccc2C(N)=O)c1`, the Potency was inconclusive: 5.17 µM [activator, full curve]. With `C=CCn1cnc2c(c1=O)c1nc3ccccc3nc1n2/N=C/c1cc(OC)c(OC)c(OC)c1` the Potency was active: 5.8 µM. In the case of `C[N+](C)(C)CCCCCC(=O)/C=N/O`, the Potency was “inactive”. For `O=C(NCc1ccc(F)cc1)c1ccncc1`, the Potency was “inactive”. In the case of `Cc1ccnc(Nc2nc(-c3ccc(F)cc3)cs2)c1`, the Potency was inconclusive: 10.3 µM [activator, partial curve]. With `CCOC(=O)c1c(-c2ccc(C)o2)csc1NC(=O)CN(C)CC(=O)Nc1ccc(C)cc1` the Potency was active: 14.6 µM. For `COC(=O)c1sc2ccccc2c1-n1cccc1C(=O)C(=O)Nc1ccc(Cl)cc1`, the Potency was “inactive”. In the case of `COc1cc2ncnc(NCc3cccc(Cl)c3)c2cc1OC`, the Potency was inconclusive: 20.6 µM [inhibitor, single point]. With `O=C(Nc1nnc(-c2ccccc2SCc2ccccc2F)s1)Nc1ccccc1F` the Potency was inconclusive: 29.1 µM [activator, single point]. In the case of `CCN(CC)CC(O)CN1C(=O)NC(C)(C)C1=O` (stereo unspecified), the Potency was inconclusive: 20.6 µM [activator, partial curve, poor fit]. For `CCOC(=O)N1CCN(C(=O)c2ccc3c(=O)n(-c4ccc(OC)cc4)c(=S)[nH]c3c2)CC1`, the Potency was inconclusive: 0.259 µM [activator, partial curve, poor fit]. In the case of `COc1ccc(CNC(=O)COc2cc(O)c3c(c2)OC(C)(C)CC3=O)c(OC)c1`, the Potency was inconclusive: 25.9 µM [inhibitor, single point]. For `Cc1cc(=O)n(Cc2ccc(OC(C)C)cc2)c(=S)[nH]1`, the Potency was “inactive”. With `CC(OC(=O)c1cccc(S(=O)(=O)Nc2cccc(C(F)(F)F)c2)c1)C(=O)Nc1ccc2c(c1)OCCO2` (stereo unspecified) the Potency was inconclusive: 29.1 µM [inhibitor, single point]. With `COc1ccccc1OCC#CCSc1ncccn1` the Potency was inconclusive: 23.1 µM [activator, single point]. For `N#C/C(=C\Nc1ccc(Cl)cc1)S(=O)(=O)c1ccccn1`, the Potency was “inactive”. With `Cc1ccc(C(=O)N(CC(=O)NC2CCCC2)c2ccccc2Cl)s1` the Potency was “inactive”. For `COc1ccc(OC)c(NC(=O)NCCCCc2ccccc2)c1`, the Potency was inconclusive: 16.4 µM [inhibitor, partial curve]. With `CCOc1ccc(CNc2nc3ccccc3n2C)cc1` the Potency was inconclusive: 11.6 µM [activator, partial curve]. In the case of `O=C(COC(=O)CNC(=O)c1ccc(Br)o1)Nc1ccccc1OC(F)F`, the Potency was inconclusive: 32.6 µM [inhibitor, partial curve, poor fit]. For `Cc1nc(SCc2ccccc2)c2ccsc2n1`, the Potency was inconclusive: 32.6 µM [inhibitor, partial curve, poor fit]. For `COC(=O)[C@@H]1C[C@@]2(O)[C@H](O)[C@H](O)[C@H](O)C[C@H]2N1C/C=C/c1ccccc1`, the Potency was inconclusive: 20.6 µM [activator, single point]. With `Cn1cnnc1SCCCN1C(=O)c2cccc3cccc(c23)C1=O` the Potency was “inactive”. For `C[C@H]1CN([C@@H](C)CO)C(=O)c2cccc(NC(=O)c3nc4ccccc4s3)c2O[C@H]1CN(C)C(=O)Nc1ccc(F)cc1`, the Potency was inconclusive: 32.6 µM [inhibitor, single point]. For `CNC(=S)N1N=C(c2ccc(C)cc2)CC1c1ccc(OC)cc1` (stereo unspecified), the Potency was “inactive”. With `O=C(Cn1cc(/C=C\[N+](=O)[O-])c2ccccc21)Nc1ccccc1` the Potency was inconclusive: 29.1 µM [inhibitor, single point]. In the case of `Clc1ccc(C2[C@H]3CN(Cc4ccc(-c5ccccc5)cc4)[C@H](c4ccccc4)C34CC2(c2cccnc2)C4)cn1` (stereo partly specified), the Potency was “inactive”. For `CN(C)C(=O)COC(=O)c1ccccc1OCC(=O)Nc1ccc(SC(F)F)cc1`, the Potency was inconclusive: 20.6 µM [inhibitor, partial curve]. With `Cc1ccc(OCc2ccc(C(=O)NN)o2)c([N+](=O)[O-])c1` the Potency was “inactive”. With `O=c1cc(N2CCCCC2)c(-c2ccccc2)nn1Cc1ccc(Cl)cc1` the Potency was inconclusive: 1.3 µM [activator, full curve, poor fit]. With `O=C(C1CCCN(S(=O)(=O)c2ccc(F)cc2)C1)N1CCCCCC1` (stereo unspecified) the Potency was “inactive”. In the case of `O=C(O)c1cc(NC(=O)c2cccc(N3C(=O)c4ccccc4C3=O)c2)cc(C(=O)O)c1`, the Potency was “inactive”. For `CCOC(=O)N1CCN(C(=O)Nc2ccc(Cl)cc2)CC1`, the Potency was “inactive”. In the case of `Cc1ccc(NC(=S)NNC(=S)Nc2ccc(C)cc2C)cc1`, the Potency was “inactive”. In the case of `CC(=O)N1N=C(c2ccccc2)CC1c1cn(C)c2ccccc12` (stereo unspecified), the Potency was inconclusive: 16.4 µM [activator, single point]. In the case of `CCn1c(C)nc2cc(C(=O)NNC(=O)CCC3CCCCC3)ccc21`, the Potency was inconclusive: 18.4 µM [activator, partial curve]. In the case of `O=c1c2ccc([N+](=O)[O-])cc2ncn1CCOc1ccccc1`, the Potency was inconclusive: 18.3 µM [inhibitor, single point]. With `O=C(N/N=C/c1cccc(OC(=O)N2CCOCC2)c1)c1cccs1` the Potency was inconclusive: 6.51 µM [activator, full curve]. In the case of `COc1ccc(-c2cc(C(F)(F)F)nc(S(=O)(=O)CCCC(=O)Nc3cc(C)on3)n2)cc1OC`, the Potency was inconclusive: 16.4 µM [activator, partial curve]. With `c1ccc2c(c1)OCC(CNc1ncnc3sccc13)O2` (stereo unspecified) the Potency was inconclusive: 0.13 µM [inhibitor, full curve]. For `O=C(O)CCN1C(=O)C2C3C=CC(C3)C2C1=O` (stereo unspecified), the Potency was “inactive”. With `COc1ccc2nc(NC(=O)Cc3cccs3)sc2c1` the Potency was inconclusive: 3.26 µM [activator, full curve]. With `Cc1ccc(NC(=O)C2C3CCCC2C3c2ccccc2)cc1C` (stereo unspecified) the Potency was inconclusive: 1.12 µM [inhibitor, full curve, poor fit]. For `O=C(COc1ccc(Br)cc1CO)Nc1ccccc1F`, the Potency was inconclusive: 10.3 µM [activator, partial curve]. For `CC1(N(O)C=C2C=CC(=O)C=C2)CCCCC1=O` (stereo unspecified), the Potency was inconclusive: 0.0146 µM [activator, full curve, poor fit]. In the case of `COc1ccc(Oc2nnc(C)c3ccccc23)cc1`, the Potency was inconclusive: 18.4 µM [activator, partial curve].

— PubChem BioAssay AID504467 (National Center for Advancing Translational Sciences (NCATS), 2011)
Potency is the fitted concentration of half-maximal effect.
